Consider one molecule from US20050095674A1, “Cannabinoid receptor interacting proteins and methods of use” (priority 2003, published 2005).

Results are given in words; binding and its absence hold for the method and conditions named. Some results given as binding are weak or reduced against the parent protein; the word gives no strength.

This test has as its target amino acids at positions 418-472 of the human cannabinoid receptor (CB1) fused to the GALA DNA binding domain (human) (UniProt P04386+P21554). Description: yeast two-hybrid, beta-galactosidase colour.

B1: CRIP1b exon 1 (amino acids 34-60 of SEQ ID NO:2) and exon 2 (amino acids 61-110 of SEQ ID NO:2) in combination (protein, not shown: large carriers)
chain: QNRTIKLLTGSSYKVEVKIKPSTLQVENISIGGVLVPLELKSKEPDGDRVVYTGTYDTEGVTPTKSGERQPIQITMP
Turning to B1, the binding entry is listed as “binds”.
